According to PubChem BioAssay AID1745850 (National Center for Advancing Translational Sciences (NCATS), 2022):
Out of some 2,100 compounds screened, about 260 (12%) were called active. The shares of active, inactive and inconclusive entries below differ from those in the screen. Calls come from the whole dose curve; as a rule, active = well fitted cell-killing curve with a large enough effect; inconclusive = small, poorly fitted or top-dose-only effect, or effect the other way; inactive = flat fitted curve, though single readings scatter. Potencies beside an inconclusive call are fits to weak or partial responses and may not hold up.

Assay: Viability Counterscreen for Confirmatory qHTS for Inhibitors of ATXN expression; note: nearly all actives have a fitted effect of over 50% in size
Conditions: HEK-293 ATXN2-luc cells viability, CellTiter-Fluor, 24 h
Source text: PI: Daniel Scoles Ph.D. University of Utah School of Medicine, Salt Lake City, Utah MLPCN Grant: NS073009 Spinocerebellar ataxia type 2 (SCA2) is a multisystem neurodegenerative disease caused by a dominantly acting mutation leading to expansion of a polyQ domain in the ataxin-2 protein (ATXN2). SCA2 patients develop progressive ataxia and later lose function in other neuronal systems. Prominent parkinsonian signs develop in some patients. Like many neurodegenerative disorders, no symptomatic or disease-modifying treatments are known. The primary objective of the proposed research is to identify compounds inhibiting ATXN2 expression and to test them for efficacy in SCA2 mouse models. We have developed a cell-based assay paired with an in vivo mouse model using identical luciferase expression constructs. This approach takes advantage of an ATXN2-luciferase transgene, with the luciferase gene flanked by the upstream and downstream portions of the ATXN2 gene. Here we describe a 5-7 dose quantitative high thoroughput screen (qHTS) for compounds lowering ATXN2 expression. We screened the NIH Molecular Libraries Small Molecule Repository (MLSMR) and NCGC's mechanistically annotated (MIPE) and drug repurposing (NPC) collections of compounds for lowering expression of an ATXN2-luciferase reporter in HEK-293 cells. The assay is a multiplexed cell viability assay to ensure target reduction in the absence of cytotoxicity. Secondary qHTS assays included a CMV-luciferase reporter expressed in HEK-293 cells as well as a biochemical assay using recombinant luciferase to detect inhibitors of the reporter enzyme. Compounds that inhibit ATXN2 expression but is not cytotoxic were selected for confirmatory and secondary screens.
PROTOCOL TABLE (as described by Inglese J, Shamu CE and Guy RK. 2007) SEQUENCE No. (e.g., 1, 2, 3, etc.); […] (e.g., Cells, Incubation, Reagent, etc.); VALUE; DESCRIPTION. 1; Cells; 4 uL; white, solid bottom, 1536-well Greiner assay plate. 2; Incubation; 2 hr; 37 degree C in 5% humidified CO2. 3; Compounds; 23 nL; Kalypsis pintool (Wako USA) equipped with a 1536-well pin head. 4; Incubation; 24 hr; 37 degree C in 5% humidified CO2. 5; Reagent; 1 uL; Gly-Phe-7-Amino-4-trifluoromethylcoumarin. 6; Incubation; 30 min; 37 degree C in 5% humidified CO2. 7; Detection; Fluorescence; ViewLux plate reader (PerkinElmer). 8; Reagent; 3 uL; SteadyGlo luciferase solution (Promega). 9; Incubation; 5 min; room temperature. 10; Detection; Luminescence; ViewLux plate reader (PerkinElmer). NOTES (numbers refer to Sequence numbers above) 1. S2 cells expressing ATXN2-luciferase reporter were suspended in phenol-red free DMEM and dispensed in assay plates using a Multidrop Combi dispenser (Thermo Fisher Scientific). Wells containing medium only were plated on each plate, and values were used to normalize (100% inhibition) in the luciferase and CellTiter-Fluor assays. 2. Assay plates were incubated. Evaporation was prevented by covering assay plates with metal lids containing holes to allow gas diffusion. 3. Compounds were added in a dose response manner with the final concentrations of 57, 11.4, 2.28, 0.46, 0.091, 0.018, 0.0037 uM. Vehicle-only plates, with DMSO being pin-transferred to columns 5-48, were inserted uniformly at the beginning and the end of each library to monitor and record any shifts in assay performance. 5. 125 uM Gly-Phe-7-Amino-4-trifluoromethylcoumarin (MP Biomedicals) working concentration was used at a final concentration of 25 uM. 7. To assess cell viability; the assay plates were read using the ViewLux high-throughput CCD imager (PerkinElmer), wherein single end-point fluorescence measurement was acquired (excitation 405/10; emission 540/25 nm). 8. Detection reagent SteadyGlo Luciferase (Promega) was added to the assay plate. 10. Luminescence is then measured on the ViewLux imager equipped with a clear emission filter using a 2 sec exposure. […]
Potency is the fitted concentration of half-maximal effect.

With `COc1cccc(/C=N/n2c(N)c(S(=O)(=O)c3cccs3)c3nc4ccccc4nc32)c1OC` as the compound, how does the Potency read?
The Potency was active: 22.4 µM.

For `COc1ccc(NC(=O)c2cc(-c3cc(Cl)ccc3OC)n[nH]2)cc1OC`, which Potency is on record?
Its Potency is inconclusive: 4.47 µM [cytotoxic, partial curve, poor fit].

For `CCN(C(=O)c1cc2c(C)nc3ccccc3c2o1)c1cc(Cl)ccc1OC`, which Potency is on record?
The Potency was inconclusive: 39.8 µM [cytotoxic, single point].

Which Potency does the source give for `Cc1cc(C(=O)N/N=C/c2cc(Br)ccc2OC(=O)c2ccccc2Cl)n[nH]1` here?
The Potency was inconclusive: 11.2 µM [cytotoxic, partial curve].

For `CCCCCCc1cc2cc(S(=O)(=O)c3ccc(C)cc3)c(=O)oc2cc1O`, which Potency is on record?
Its Potency is inconclusive: 4.47 µM [rising, partial curve].

With `O=C(C1CCC(CNS(=O)(=O)c2cccc3nsnc23)CC1)N1CC=C(c2ccccc2)CC1` (stereo not given) as the compound, how does the Potency read?
The Potency was “inactive”.

With `CC1CC(C)CN(CCCNC(=O)c2cc3c(s2)-c2ccccc2OC3)C1` (stereo not given) as the compound, how does the Potency read?
Its Potency is “inactive”.

With `Cc1cccc(/C=N/NC(=O)c2c(-c3ccccc3)noc2C)c1O` as the compound, how does the Potency read?
Its Potency is “inactive”.

Which Potency does the source give for `COc1ccc(C(=O)Nc2nc(-c3ccc(S(=O)(=O)N4CCOCC4)cc3)cs2)cc1` here?
The Potency was inconclusive: 2.51 µM [cytotoxic, partial curve].

For `CC(C)N(Cc1ccccc1)C(=O)/C=C/c1ccccc1[N+](=O)[O-]`, which Potency is on record?
Its Potency is “inactive”.

With `N=c1c2c(n(Cc3cccc(Cl)c3)c3c1CCC3)CCCC2` as the compound, how does the Potency read?
The Potency was inconclusive: 11.2 µM [cytotoxic, partial curve, poor fit].

With `C/C(=N\NC(=O)Cc1ccc(Cl)cc1)c1ccccc1O` as the compound, how does the Potency read?
The Potency was inconclusive: 25.1 µM [cytotoxic, single point].

With `COc1cc(/C=C/CN2CCC(C(=O)NC(c3ccc(F)cc3)c3ccc4ccccc4n3)CC2)ccc1OC(C)=O` (stereo not given) as the compound, how does the Potency read?
The Potency was inconclusive: 25.1 µM [cytotoxic, partial curve, poor fit].

For `COc1ccc(Oc2c(Cl)cnn(-c3ccccc3)c2=O)cc1`, which Potency is on record?
Its Potency is active: 3.16 µM.

With `CC[n+]1c(/C=C/c2c[nH]c3ccccc23)ccc2cc(C)ccc21` as the compound, how does the Potency read?
The Potency was active: 15.8 µM.

For `Nc1ccc2cc3[nH]c4cc(N)ccc4c3nc2c1`, which Potency is on record?
Its Potency is inconclusive: 3.98 µM [rising, partial curve].

For `CC(=NNC(=O)c1ccncc1)c1ccc(O)cc1O`, which Potency is on record?
Its Potency is inconclusive: 17.8 µM [cytotoxic, partial curve].

For `Cc1cc(SCC(=O)N/N=C/c2ccc(O)cc2O)nc2ccccc12`, which Potency is on record?
The Potency was inconclusive: 20 µM [cytotoxic, partial curve].

With `O=C(Nc1ccccc1C(=O)Nc1nnc(C(F)(F)F)s1)c1ccccc1Cl` as the compound, how does the Potency read?
The Potency was inconclusive: 8.91 µM [cytotoxic, partial curve].

For `CCOC(=O)C(=CNc1ccc2c(c1)nnn2-c1ccc(Cl)cc1)C(=O)OCC`, which Potency is on record?
The Potency was inconclusive: 28.2 µM [cytotoxic, single point].

Which Potency does the source give for `CCN(c1ccccc1)S(=O)(=O)c1ccc(C(=O)N(CCCN(C)C)c2nc3c(C)cccc3s2)cc1` here?
The Potency was active: 20 µM.

For `COc1nn(-c2ccccc2)c(=O)c(Cl)c1Cl`, which Potency is on record?
The Potency was active: 2.82 µM.

Which Potency does the source give for `Cc1cccc(/C=N/NC(=O)c2cccc(Cl)c2)n1` here?
Its Potency is “inactive”.

Which Potency does the source give for `COc1cc(C#Cc2c(-c3cncn3C)n(C)c3ccc(-c4ccc(CN5CCOCC5)cc4)cc23)cc(OC)c1` here?
Its Potency is “inactive”.

For `Cc1ccc(C(=O)CN2C(=O)c3ccccc3S2(=O)=O)cc1`, which Potency is on record?
The Potency was “inactive”.

Which Potency does the source give for `O=C(Cn1nc2ccccc2n1)N/N=C/c1cc([N+](=O)[O-])ccc1O` here?
The Potency was inconclusive: 3.16 µM [cytotoxic, single point].

For `O=C(Nc1ccccc1N1CCN(C(=O)c2ccccc2)CC1)c1ccc(Br)o1`, which Potency is on record?
Its Potency is inconclusive: 28.2 µM [cytotoxic, single point].

For `CC(C)CC(N)c1csc(Nc2ccc(C(=O)N(C)Cc3ccccc3)cn2)n1` (stereo not given), which Potency is on record?
The Potency was active: 14.1 µM.

For `CN1CCN(c2nc(Nc3ccc(F)cc3)nc(Nc3ccc(F)cc3)n2)CC1`, which Potency is on record?
Its Potency is inconclusive: 25.1 µM [cytotoxic, single point].

For `CC(Oc1ccc(F)cc1)C(=O)Nc1nc(-c2ccccn2)cs1` (stereo not given), which Potency is on record?
Its Potency is inconclusive: 14.1 µM [cytotoxic, partial curve].

Which Potency does the source give for `Cc1ccc(Cn2ncc3c(NN)ncnc32)cc1` here?
The Potency was “inactive”.

With `OC(c1cc(-c2cccc(Cl)c2)nc2ccccc12)C1CCCCN1` (stereo not given) as the compound, how does the Potency read?
The Potency was active: 28.2 µM.

With `COc1cccc2c1C1COC3C4CC(C(=O)O)C(C(C2)N13)N4C` (stereo not given) as the compound, how does the Potency read?
The Potency was inconclusive: 31.6 µM [cytotoxic, single point].

With `Cc1ccc(S(=O)(=O)c2c(N)n(CC3CCOC3)c3nc4ccccc4nc23)cc1` (stereo not given) as the compound, how does the Potency read?
The Potency was “inactive”.

With `CCOC(=O)c1c(NC(=O)COC(=O)CNC(=O)c2ccco2)sc(C)c1C` as the compound, how does the Potency read?
Its Potency is “inactive”.

For `COc1ccc(CC(=O)N/N=C(\C)c2ccccn2)cc1`, which Potency is on record?
The Potency was inconclusive: 15.8 µM [cytotoxic, partial curve, poor fit].

With `Cc1ccc(NC(=O)CSc2n[nH]c(-c3ccccn3)n2)cc1` as the compound, how does the Potency read?
The Potency was inconclusive: 3.55 µM [cytotoxic, single point].

Which Potency does the source give for `CCC(=O)NC(c1ccc(OC)cc1)c1cc(Cl)c2cccnc2c1O` (stereo not given) here?
The Potency was inconclusive: 10 µM [cytotoxic, partial curve].

Which Potency does the source give for `CN(C)c1ccccc1-c1cc(NC=O)c2ncc(-c3cccc(C(F)(F)F)c3)n2c1` here?
Its Potency is inconclusive: 3.55 µM [rising, partial curve].

Which Potency does the source give for `CCCCc1ccc(N/C(N)=N/c2nc(C)cc(C)n2)cc1` here?
Its Potency is inconclusive: 3.98 µM [cytotoxic, single point].

With `CCN(CC)C(=O)c1cccc(-c2csc(C(C)(O)c3cccc(F)c3)n2)c1` (stereo not given) as the compound, how does the Potency read?
The Potency was inconclusive: 3.55 µM [cytotoxic, single point].

With `Cc1cc(/C=N/n2cnnc2)c(C)n1-c1ccc(OCc2ccc(F)cc2)cc1` as the compound, how does the Potency read?
The Potency was inconclusive: 20 µM [cytotoxic, partial curve].

For `NNC(=O)c1sc2cc(C(F)(F)F)cnc2c1-c1cccs1`, which Potency is on record?
Its Potency is “inactive”.

Which Potency does the source give for `CN(C)CCCN(C(=O)c1ccc(S(=O)(=O)N2CCCC2)cc1)c1nc2ccc(Br)cc2s1` here?
Its Potency is inconclusive: 39.8 µM [cytotoxic, single point].

For `CC[C@@]1(O)C(=O)OCc2c1cc1n(c2=O)Cc2cc3c(CN(C)C)c(O)ccc3nc2-1`, which Potency is on record?
Its Potency is inconclusive: 20 µM [rising, partial curve].
